Source: article PMC12274589
Results are given in words; binding and its absence hold for the method and conditions named. In cells and extracts the contact can be indirect. Some results given as binding are weak or reduced against the parent protein; the word gives no strength. For some assays here: Sequences can lack the tags named with a protein.

Protein sequences, listed by entry. Tags and fused reporters are not part of them.
UniProt O00425: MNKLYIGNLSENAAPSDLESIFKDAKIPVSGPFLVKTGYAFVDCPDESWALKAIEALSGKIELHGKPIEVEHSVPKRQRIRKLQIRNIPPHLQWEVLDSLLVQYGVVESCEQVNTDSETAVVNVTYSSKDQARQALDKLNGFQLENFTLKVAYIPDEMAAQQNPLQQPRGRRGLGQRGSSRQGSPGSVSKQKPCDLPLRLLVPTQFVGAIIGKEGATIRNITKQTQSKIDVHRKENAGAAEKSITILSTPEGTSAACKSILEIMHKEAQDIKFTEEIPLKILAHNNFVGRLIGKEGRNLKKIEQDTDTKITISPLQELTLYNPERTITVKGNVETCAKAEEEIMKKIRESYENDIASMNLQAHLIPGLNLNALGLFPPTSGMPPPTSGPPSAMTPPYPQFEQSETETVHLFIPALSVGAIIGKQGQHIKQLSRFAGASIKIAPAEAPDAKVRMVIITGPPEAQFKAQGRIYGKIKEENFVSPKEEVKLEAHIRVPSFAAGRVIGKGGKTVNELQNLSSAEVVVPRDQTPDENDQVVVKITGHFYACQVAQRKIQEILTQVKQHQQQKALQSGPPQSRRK

Columns and labels:
PHGDH-Flag = molecular target: T1, PHGDH-Flag (UniProt O43175); experiment: co-IP; exogenous immunoprecipitation of co-transfected tagged constructs in HEK293 (and MHCC-97H) cells; NP-40 lysis buffer, anti-HA / anti-Flag / anti-Myc antibody overnight at 4 °C; Western blot
T1 sequence: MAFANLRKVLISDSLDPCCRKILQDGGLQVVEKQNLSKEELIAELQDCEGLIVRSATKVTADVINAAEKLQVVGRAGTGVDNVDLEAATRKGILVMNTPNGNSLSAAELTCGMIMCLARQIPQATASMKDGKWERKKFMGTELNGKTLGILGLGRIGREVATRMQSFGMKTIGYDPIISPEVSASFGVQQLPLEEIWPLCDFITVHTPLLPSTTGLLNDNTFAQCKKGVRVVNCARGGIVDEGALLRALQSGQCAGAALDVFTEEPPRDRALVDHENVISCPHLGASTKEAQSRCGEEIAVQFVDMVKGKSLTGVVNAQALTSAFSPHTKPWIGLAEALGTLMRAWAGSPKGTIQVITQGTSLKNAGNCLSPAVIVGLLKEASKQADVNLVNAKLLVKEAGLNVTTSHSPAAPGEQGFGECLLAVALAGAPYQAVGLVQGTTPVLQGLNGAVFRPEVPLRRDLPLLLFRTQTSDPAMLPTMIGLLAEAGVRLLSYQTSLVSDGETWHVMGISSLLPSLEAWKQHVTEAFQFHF

[1] = molecular target: T2, phosphoglycerate dehydrogenase (PHGDH), endogenous (human (endogenous in PLC/PRF/5 and Huh7)) (UniProt O43175); experiment: co-IP; endogenous immunoprecipitation in PLC/PRF/5 and Huh7 cells; NP-40 lysis buffer, lysate with the specified antibody overnight at 4 °C, then Protein A/G magnetic beads 4 h; washed with PBST; Western blot
T2 sequence: T1 sequence

IGF2BP3-Myc (from UniProt O00425 1-579)
binding (PHGDH-Flag): binds

insulin-like growth factor 2 mRNA-binding protein 3 (IGF2BP3), endogenous (from UniProt O00425 1-579)
binding [1]: binds
